Where a name gives a salt, the structure may show the parent alone. ± gives the standard deviation of the averaged measurements. Some of the results follow. Part of the spread comes from offsets between plates or batches.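 The cells are a mouse kidney inner medullary collecting duct line, silenced either for the ciliary gene Rpgrip1l or with a non-targeting control siRNA.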
The compounds below were run on mIMCD3 (assay: robust z score of cell number vs plate controls; higher = more cells (less cytotoxic)). Conditions: 10 µM; 48 h; siRNA: siScr.

| Structure (SMILES) | robust z score of cell number |
| --- | --- |
| Oc1ccc(Nc2nc(-c3ccc(Cl)cc3)cs2)cc1 | -54.6 ± 29 |
| O=c1c(-c2ccc(O)cc2)coc2cc(O)cc(O)c12 [Genistein] | -8.29 ± 3.2 |
| CC(C)N1Cc2cc(S(C)(=O)=O)ccc2N(CCN2CC=C(c3c[nH]c4cc(F)ccc34)CC2)S1(=O)=O | -7.01 ± 4 |
| CCCC(=O)Nc1ncnc2c1ncn2[C@@H]1O[C@@H]2COP(=O)(O)O[C@H]2[C@H]1OC(=O)CCC [Dibutyryl-cAMP, sodium salt] | -1.23 ± 0.89 |
| CCCCC/N=c1\ccn(Cc2ccccc2)c2ccccc12 | -33.9 ± 7.6 |
| CC1=C(/C=C/C(=C/C=C/C(C)=C/C(=O)O)c2ccc(C)cc2)C(C)(C)CCC1 | -139 ± 110 |
| COc1cc(OC)c(NC(=O)Nc2cc(C)on2)cc1Cl | -30.1 ± 22 |
| Nc1ncnc2n[nH]c(Nc3ccc(F)cc3)c12 | -3.39 ± 1 |
| Cn1cnnc1Sc1c([N+](=O)[O-])ncn1C | -38.2 ± 23 |
| COc1ccc(CCN(C)CCCOc2ccc(S(=O)(=O)c3c(C(C)C)c4ccccc4n3C)cc2)cc1OC | -28.2 ± 22 |
| Oc1nc(-c2ccc(C(F)(F)F)cc2)nc2c1CSCC2 | -13.6 ± 4.2 |
| N#Cc1ccccc1OCC(O)CNCCNC(=O)Nc1ccccc1 (stereo not given) | -2.05 ± 5 |
| OCCN(CCO)c1nc(N2CCCCC2)c2nc(N(CCO)CCO)nc(N3CCCCC3)c2n1 [Dipyridamole] | -9.56 ± 2.5 |
| C[C@@H](NCc1cc(Br)cc2[nH]c(=O)c(=O)[nH]c12)P(=O)(O)O | 2.25 ± 2.4 |
| CCCCCCN(CCCCCC)C(=O)Cc1c(-c2ccc(Cl)cc2)[nH]c2ccc(Cl)cc12 | -108 ± 90 |
| CCCCCCCC/C=C\CCCCCCCC(=O)NCc1ccc(O)c(OC)c1 [Olvanil] | -28.4 ± 15 |
| CC(C)[C@H](CO)Nc1nc(Nc2cc(N)cc(Cl)c2)c2ncn(C(C)C)c2n1 [Aminopurvalanol A] | -51.5 ± 28 |
| CCOC(=O)[C@H](CCc1ccccc1)N[C@@H](C)C(=O)N1Cc2cc(OC)c(OC)cc2C[C@H]1C(=O)O [Moexipril hydrochloride] | -0.536 ± 2.7 |
| Cc1ccccc1N=Nc1ccc(NC(=O)c2ccnn2C)c(C)c1 | -17.8 ± 4 |
| O=C(Nc1cccc2cccnc12)c1ccc(N2C(=O)[C@@H]3[C@H](C2=O)[C@@H]2C=C[C@H]3C2)cc1 [endo-IWR 1] | -7.65 ± 3.1 |
| COC(=O)Nc1nc2cc(C(=O)c3cccs3)ccc2[nH]1 [Nocodazole] | -37.3 ± 8.9 |
| O=C(O)C(=O)O.[NH-][C@@H]1CCCC[C@H]1[NH-].[Pt+2] [Oxaliplatin] | -96.9 ± 77 |
| CC(C(=O)O)c1ccc(-c2ccccc2)c(F)c1 (stereo not given) [Flurbiprofen] | -30.2 ± 1.2 |
| COc1cccc2c1C(=O)c1c(O)c3c(c(O)c1C2=O)C[C@@](O)(C(=O)CO)C[C@@H]3O[C@H]1C[C@H](N)[C@H](O)[C@H](C)O1 [Doxorubicin hydrochloride] | -55.1 ± 29 |
| O=C1NN(C(=O)Nc2ccc(Br)cc2)[C@@H](c2ccccc2)[C@@H]1c1ccccc1 | -23.1 ± 8.4 |

Three structures out of the list, arranged by SMILES length, largest number first:

| Structure (SMILES) | robust z score of cell number |
| --- | --- |
| OCCN(CCO)c1nc(N2CCCCC2)c2nc(N(CCO)CCO)nc(N3CCCCC3)c2n1 [Dipyridamole] | -9.56 ± 2.5 |
| COc1cc(OC)c(NC(=O)Nc2cc(C)on2)cc1Cl | -30.1 ± 22 |
| Cn1cnnc1Sc1c([N+](=O)[O-])ncn1C | -38.2 ± 23 |
